# Data from patent publication US20030077826A1, “Chimeric molecules containing a module able to target specific cells and a module regulating the apoptogenic function of the permeability transition pore complex (PTPC)” (priority 2001, published 2003).
# Part of at least one peptide drawing is inferred or uncertain, most often the ends.
# Assays:
# Purified VDAC = test: Surface plasmon resonance, immobilised peptides with purified VDAC; assay type: binding; settings: VDAC concentrations ten times higher than ANT
# Procedure: (§1) Sensor Chips SA (streptavidin coated sensor chips) were used for immobilisation of the different peptides. Tox1 was immobilised at a density of 0.7 ng/mm^2, Tox0 at a density of 3.7 ng/mm^2,. Ctr1Tox0 at a density of 1.4 ng/mm^2, Tox5 at a density of 1 ng/mm^2, Tox6 at a density of 1 ng/mm2, Save1 at a density of 1.3 ng/mm^2, and the control peptide at a density of 0.8 ng/mm^2. Association and dissociation kinetics of ANT and VDAC interactions were followed at a rate of 10 μL/min for 10 minutes (5 minutes association and 5 minutes dissociation). The ligand was regenerated with a 1 minute flux of KSCN 3M. The obtained sensorgrams were analysed by the BlAeval 3.1 software using the method of double references (Myszka D. G. 2000. Kinetic, equilibrium and thermodynamic analysis of macromolecular interactions with BIACORE. Methods Enzymol. 323:325-340). From the sensorgrams with the ligands were first substracted the sensorgrams obtained with the corresponding analyte solvents. A second substraction was performed with the sensorgrams obtained with the control peptide ligand. The control peptide for the Tox and Save peptides was biot-H19C corresponding to the sequence of the β2-adrenergic receptor (Lebesgue D., Wallukat G., Mijares A., Granier C., Argibay J., and Hoebeke J. (1998) An agonist-like monoclonal antibody to the human β 2-adrenergic receptor. Eur.J. Pharmacol. 348:123-133). […]
# [1] = tested on: permeability transition pore (PTP); test: Swelling of isolated mitochondria (large amplitude swelling, 90° light scattering); assay type: biochemical, rat; design: key: +++ rapid sw; ++ low sw; + very low sw; − no sw t 20 min; settings: 5 μM, 20 min
# Procedure: Mitochondria are purified from rat liver, as described (Costantini et al., 1996), and resuspended in 250 mM sucrose+0.1 mM EGTA+10 mM-tris[hydroxymethyl]methyl-2-Aminoethanesulfonic acid, pH=7.4). For the induction of PT, mitochondria (0.5 mg protein per ml) are resuspended in PT buffer (200 mM sucrose, 10 mM Tris-MOPS (pH 7.4), 5 mM Tris-succinate, 1 mM Tris-phosphate, 2 μM rotenone, and 10 μM EGTA-Tris), and monitored in an F4500 fluorescence spectrometer (Hitachi, Tokyo, Japan) for the 90° light scattering of light ([…]), 1 μM cyclosporin A (CsA; Novartis, Basel, Switzerland), 5 μM CaCl2, and/or 0.5 to 20 μM of pTarg-pTox or pTarg-pSave. For the determination of the ΔΨm, mitochondria (0.5 mg protein per ml) are incubated in a buffer supplemented with 1 μM rhodamine 123 (Molecular Probes, Eugene, Oreg.) and the dequenching of rhodamine fluorescence (excitation 505 nm, emission 525 nm) is measured as described (Shimizu et al, 1998). Supernatants from mitochondria (6800 g for 15 min; then 20 000 g for 1 h; 4° C.) are frozen at −80° C. until determination of apoptogenic activity on isolated nuclei, DEVD-afc cleaving activity, and immunodetection of cytochrome c and AIF. Cytochrome c and AIF are detected by means of a monoclonal antibody (clone 7H8.2C12, Pharmingen) and a polyclonal rabbit anti-serum (Susin et al. 1999) respectively.
# Purified ANT = biological target: T1, Purified ANT (Rattus norvegicus, UniProt Q05962); assay type: binding; settings: 4 ANT concentrations (6.25 to 50 nM); simple Langmuir model with drifting baseline
# T1 sequence (Q05962 1-298): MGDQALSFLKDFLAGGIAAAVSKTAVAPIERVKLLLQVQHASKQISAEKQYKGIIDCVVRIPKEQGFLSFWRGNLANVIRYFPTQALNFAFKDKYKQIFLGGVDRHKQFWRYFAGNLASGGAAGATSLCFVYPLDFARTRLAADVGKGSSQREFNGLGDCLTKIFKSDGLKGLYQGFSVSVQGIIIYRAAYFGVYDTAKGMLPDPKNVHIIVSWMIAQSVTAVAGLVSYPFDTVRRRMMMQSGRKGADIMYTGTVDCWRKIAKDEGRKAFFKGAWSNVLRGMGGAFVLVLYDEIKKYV
# Procedure: as §1
compound,measurement,setting,value
CC[C@H](C)[C@H](NC(=O)CNC(=O)[C@@H](NC(=O)[C@H](CCCNC(=N)N)NC(=O)[C@H](CO)NC(=O)[C@H](Cc1c[nH]cn1)NC(=O)[C@H](CCCNC(=N)N)NC(=O)[C@H](CS)NC(=O)CNC(=O)[C@@H](NC(=O)[C@H](CCCNC(=N)N)NC(=O)[C@H](Cc1ccccc1)NC(=O)[C@H](Cc1c[nH]cn1)NC(=O)[C@@H](NC(=O)[C@H](Cc1ccccc1)NC(=O)[C@H](CC(C)C)NC(=O)[C@H](CC(C)C)NC(=O)[C@H](CCC(N)=O)NC(=O)[C@H](CCC(N)=O)NC(=O)[C@H](CC(C)C)NC(=O)[C@@H](NC(=O)[C@H](CCCNC(=N)N)NC(=O)[C@@H](NC(=O)[C@H](CC(C)C)NC(=O)[C@H](C)NC(=O)[C@H](CCC(=O)O)NC(=O)[C@@H](NC(=O)CNC(=O)[C@@H](NC(=O)[C@H](Cc1c[nH]c2ccccc12)NC(=O)[C@@H](NC(=O)[C@H](CC(=O)O)NC(=O)CCCC[C@@H]1SC[C@@H]2NC(=O)N[C@@H]21)[C@@H](C)O)[C@@H](C)O)C(C)C)[C@@H](C)CC)[C@@H](C)CC)[C@@H](C)CC)[C@@H](C)CC)[C@@H](C)CC)C(=O)N[C@H](C(=O)N[C@@H](CCC(N)=O)C(=O)N[C@@H](CCC(N)=O)C(=O)N[C@@H](CCCNC(=N)N)C(=O)N[C@@H](CCCNC(=N)N)C(=O)N[C@H](C(=O)N[C@@H](CCCNC(=N)N)C(=O)N[C@@H](CC(N)=O)C(=O)NCC(=O)N[C@@H](C)C(=O)N[C@@H](CO)C(=O)N[C@@H](CCCCN)C(=O)N[C@@H](CO)C(=O)O)[C@@H](C)O)[C@@H](C)CC [Tox0],association of VDAC with the peptide ligand,Purified VDAC,only extremely low association
same,Induction of Mitochondrial swelling (sw),[1],+++
same,Rmax,Purified ANT,160
